No constants are given. Whether binding was seen depends on the method and setting. Some results given as binding are weak or reduced against the parent protein; the word gives no strength.
T1: Cleft Lip and Palate Transmembrane protein 1 (CLPTM1), human (human) (UniProt O96005)
T1 sequence: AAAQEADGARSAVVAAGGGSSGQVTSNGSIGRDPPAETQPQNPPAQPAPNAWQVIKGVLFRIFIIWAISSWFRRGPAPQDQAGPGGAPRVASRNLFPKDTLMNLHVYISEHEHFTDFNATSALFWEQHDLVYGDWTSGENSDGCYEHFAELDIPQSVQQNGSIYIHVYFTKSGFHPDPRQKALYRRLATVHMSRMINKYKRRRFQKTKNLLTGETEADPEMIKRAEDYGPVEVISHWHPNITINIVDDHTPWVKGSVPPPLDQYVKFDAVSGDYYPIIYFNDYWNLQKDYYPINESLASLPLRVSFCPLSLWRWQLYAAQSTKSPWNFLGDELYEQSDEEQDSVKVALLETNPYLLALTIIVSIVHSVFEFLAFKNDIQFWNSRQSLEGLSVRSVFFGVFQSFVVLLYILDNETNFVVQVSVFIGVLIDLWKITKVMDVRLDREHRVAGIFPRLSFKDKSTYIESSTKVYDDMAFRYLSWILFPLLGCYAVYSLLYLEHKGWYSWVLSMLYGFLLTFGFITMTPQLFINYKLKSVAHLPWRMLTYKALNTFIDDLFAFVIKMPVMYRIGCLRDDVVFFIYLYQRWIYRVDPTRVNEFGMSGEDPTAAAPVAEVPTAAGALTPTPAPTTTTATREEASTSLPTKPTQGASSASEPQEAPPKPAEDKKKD

Chains of the proteins cited; added tags and fusions are not shown. Residues count along the entry.
UniProt P01137, residues 279-390: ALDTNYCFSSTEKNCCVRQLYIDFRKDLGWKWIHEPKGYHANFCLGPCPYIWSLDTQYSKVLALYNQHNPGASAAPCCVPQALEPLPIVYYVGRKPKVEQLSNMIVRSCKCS

B1: transforming growth factor-beta 2 (TGF-β2) (ligand, UniProt P61812 303-414, looked up)
chain: ALDAAYCFRNVQDNCCLRPLYIDFKRDLGWKWIHEPKGYNANFCAGACPYLWSSDTQHSRVLSLYNTINPEASASPCCVSQDLEPLTILYYIGKTPKIEQLSNMIVKSCKCS
B2: transforming growth factor-beta 3 (TGF-β3) (ligand, UniProt P10600 301-412, looked up)
chain: ALDTNYCFRNLEENCCVRPLYIDFRQDLGWKWVHEPKGYYANFCSGPCPYLRSADTTHSTVLGLYNTLNPEASASPCCVPQDLEPLTILYYVGRTPKVEQLSNMVVKSCKCS

Target: T1, Cleft Lip and Palate Transmembrane protein 1 (CLPTM1), human (human)
Assay: restates the peptide ELISA of Example 1

Row | Molecule | binding
1 | transforming growth factor-beta 1 (TGF-β1) (from UniProt P01137 279-390) (ligand) | binds
2 | B1 | binds
3 | B2 | binds

Source: patent US20190328788A1 (GENAGON THERAPEUTICS, published 2019)
